Drawing on PMC4992831, this text covers binding for four molecules.

In assay [1] the target is Flag-Trio^1118–1919 (human) (UniProt O75962). The assay is described as follows: co-IP; transfected cells (HEK293 stated for Fig. S3E, F), pair tested with or without a co-expressed third protein (Tara, Ndel1 or Flag-Trio^1118–1919); precipitating antibody not shown.
Assay [2] has as its target Trio^1118–1919, pPC97 two-hybrid fusion (human) (UniProt O75962). The assay is described as follows: two-hybrid; direct test of co-transformants in pPC97 and pPC86, MaV203 yeast; colony-lifting assay for β-galactosidase expression.
For assay [3], the target named is T1, Lis1 (pEGFP-C3 construct) (human) (UniProt P43034).
T1 sequence: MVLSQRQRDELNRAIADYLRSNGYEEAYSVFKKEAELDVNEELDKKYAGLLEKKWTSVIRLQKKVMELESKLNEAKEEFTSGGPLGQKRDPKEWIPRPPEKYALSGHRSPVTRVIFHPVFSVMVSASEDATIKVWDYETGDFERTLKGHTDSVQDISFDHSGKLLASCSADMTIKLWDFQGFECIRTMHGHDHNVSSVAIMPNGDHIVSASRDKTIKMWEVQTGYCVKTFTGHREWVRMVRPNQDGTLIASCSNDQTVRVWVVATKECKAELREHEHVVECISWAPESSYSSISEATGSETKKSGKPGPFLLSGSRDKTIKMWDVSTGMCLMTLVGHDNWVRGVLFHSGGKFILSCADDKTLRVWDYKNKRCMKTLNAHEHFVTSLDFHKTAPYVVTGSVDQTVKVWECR
The experiment in a line: co-IP; transfected cells (HEK293 stated for Fig. S3E, F), pair tested with or without a co-expressed third protein (Tara, Ndel1 or Flag-Trio^1118–1919); precipitating antibody not shown.

No constants are given. Whether binding was seen depends on the method and setting. For some of these results: In cells and extracts the contact can be indirect. Some binding calls cover weakened binding; strength is not graded here. Where a sequence is shown, tags or fusion partners need not be part of it.

B1: Myc-Tara (protein, UniProt Q9H2D6-5 1-593)
chain: MTPDLLNFKKGWMSILDEPGEPPSPSLTTTSTSQWKKHWFVLTDSSLKYYRDSTAEEADELDGEIDLRSCTDVTEYAVQRNYGFQIHTKDAVYTLSAMTSGIRRNWIEALRKTVRPTSAPDVTKLSDSNKENALHSYSTQKGPLKAGEQRAGSEVISRGGPRKADGQRQALDYVELSPLTQASPQRARTPARTPDRLAKQEELERDLAQRSEERRKWFEATDSRTPEVPAGEGPRRGLGAPLTEDQQNRLSEEIEKKWQELEKLPLRENKRVPLTALLNQSRGERRGPPSDGHEALEKEVQALRAQLEAWRLQGEAPQSALRSQEDGHIPPGYISQEACERSLAEMESSHQQVMEELQRHHERELQRLQQEKEWLLAEETAATASAIEAMKKAYQEELSRELSKTRSLQQGPDGLRKQHQSDVEALKRELQVLSEQYSQKCLEIGALMRQAEEREHTLRRCQQEGQELLRHNQELHGRLSEEIDQLRGFIASQGMGNGCGRSNERSSCELEVLLRVKENELQYLKKEVQCLRDELQMMQKDKRFTSGKYQDVYVELSHIKTRSEREIEQLKEHLRLAMAALQEKESMRNSLAE
On to B1, for which, in assay [1], the binding result is given as “binds”.

B2: Tara, pPC86 two-hybrid fusion (protein, UniProt Q9H2D6-5 1-593)
chain: B1 chain
B2: the binding entry in assay [2] was “binds”.

B3: GFP-Tara^Δ413–499 (protein, UniProt Q9H2D6-5)
chain: MTPDLLNFKKGWMSILDEPGEPPSPSLTTTSTSQWKKHWFVLTDSSLKYYRDSTAEEADELDGEIDLRSCTDVTEYAVQRNYGFQIHTKDAVYTLSAMTSGIRRNWIEALRKTVRPTSAPDVTKLSDSNKENALHSYSTQKGPLKAGEQRAGSEVISRGGPRKADGQRQALDYVELSPLTQASPQRARTPARTPDRLAKQEELERDLAQRSEERRKWFEATDSRTPEVPAGEGPRRGLGAPLTEDQQNRLSEEIEKKWQELEKLPLRENKRVPLTALLNQSRGERRGPPSDGHEALEKEVQALRAQLEAWRLQGEAPQSALRSQEDGHIPPGYISQEACERSLAEMESSHQQVMEELQRHHERELQRLQQEKEWLLAEETAATASAIEAMKKAYQEELSRELSKTRSLQQGPGRSNERSSCELEVLLRVKENELQYLKKEVQCLRDELQMMQKDKRFTSGKYQDVYVELSHIKTRSEREIEQLKEHLRLAMAALQEKESMRNSLAE
On to B3, for which the binding result in assay [1] is reported as “binds”.

B4: Flag-Ndel1 (protein, UniProt Q9GZM8 1-345)
chain: MDGEDIPDFSSLKEETAYWKELSLKYKQSFQEARDELVEFQEGSRELEAELEAQLVQAEQRNRDLQADNQRLKYEVEALKEKLEHQYAQSYKQVSVLEDDLSQTRAIKEQLHKYVRELEQANDDLERAKRATIVSLEDFEQRLNQAIERNAFLESELDEKESLLVSVQRLKDEARDLRQELAVRERQQEVTRKSAPSSPTLDCEKMDSAVQASLSLPATPVGKGTENTFPSPKAIPNGFGTSPLTPSARISALNIVGDLLRKVGALESKLAACRNFAKDQASRKSYISGNVNCGVLNGNGTKFSRSGHTSFFDKGAVNGFDPAPPPPGLGSSRPSSAPGMLPLSV
With B4, the binding entry in assay [3] is reported as “binds”.
